This is one part of the list.
Tests used:
Assay in all cases: log2 fold change, soluble protein after heating vs DMSO (PISA); higher = thermal stabilisation; K562 lysate, 10 uM; active = over 0.2 and 3.5 SD of the protein, either way, in both replicates (recomputed)
vemurafenib = compound: CCCS(=O)(=O)Nc1ccc(F)c(C(=O)c2c[nH]c3ncc(-c4ccc(Cl)cc4)cc23)c1F [vemurafenib]
Outline: (§1)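 Quantification was by TMTpro 16plex LC-MS/MS with equalised channel sums, applied to the supernatant after 21,000xg for 90 min. Samples were crude K562 extract at 1 mg/mL protein in PBS pH 7.4 with 1 mM MgCl2, treated with 10 μM compound for 30 min, heated for 3 min across 48°C-58°C, pooled and brought to 0.5% NP-40 at 4°C. Values are log-two fold changes in thermal stability relative to solvent controls, from duplicates.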

Chains of the proteins cited; added tags and fusions are not shown. Lines headed by an entry give the natural chain unless they say otherwise; changes in a name come on top.
UniProt O76095: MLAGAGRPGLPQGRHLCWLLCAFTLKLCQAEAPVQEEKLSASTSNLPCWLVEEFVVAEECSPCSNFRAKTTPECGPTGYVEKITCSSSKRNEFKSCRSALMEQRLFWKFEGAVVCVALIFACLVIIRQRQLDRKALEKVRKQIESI
UniProt Q9Y4C1: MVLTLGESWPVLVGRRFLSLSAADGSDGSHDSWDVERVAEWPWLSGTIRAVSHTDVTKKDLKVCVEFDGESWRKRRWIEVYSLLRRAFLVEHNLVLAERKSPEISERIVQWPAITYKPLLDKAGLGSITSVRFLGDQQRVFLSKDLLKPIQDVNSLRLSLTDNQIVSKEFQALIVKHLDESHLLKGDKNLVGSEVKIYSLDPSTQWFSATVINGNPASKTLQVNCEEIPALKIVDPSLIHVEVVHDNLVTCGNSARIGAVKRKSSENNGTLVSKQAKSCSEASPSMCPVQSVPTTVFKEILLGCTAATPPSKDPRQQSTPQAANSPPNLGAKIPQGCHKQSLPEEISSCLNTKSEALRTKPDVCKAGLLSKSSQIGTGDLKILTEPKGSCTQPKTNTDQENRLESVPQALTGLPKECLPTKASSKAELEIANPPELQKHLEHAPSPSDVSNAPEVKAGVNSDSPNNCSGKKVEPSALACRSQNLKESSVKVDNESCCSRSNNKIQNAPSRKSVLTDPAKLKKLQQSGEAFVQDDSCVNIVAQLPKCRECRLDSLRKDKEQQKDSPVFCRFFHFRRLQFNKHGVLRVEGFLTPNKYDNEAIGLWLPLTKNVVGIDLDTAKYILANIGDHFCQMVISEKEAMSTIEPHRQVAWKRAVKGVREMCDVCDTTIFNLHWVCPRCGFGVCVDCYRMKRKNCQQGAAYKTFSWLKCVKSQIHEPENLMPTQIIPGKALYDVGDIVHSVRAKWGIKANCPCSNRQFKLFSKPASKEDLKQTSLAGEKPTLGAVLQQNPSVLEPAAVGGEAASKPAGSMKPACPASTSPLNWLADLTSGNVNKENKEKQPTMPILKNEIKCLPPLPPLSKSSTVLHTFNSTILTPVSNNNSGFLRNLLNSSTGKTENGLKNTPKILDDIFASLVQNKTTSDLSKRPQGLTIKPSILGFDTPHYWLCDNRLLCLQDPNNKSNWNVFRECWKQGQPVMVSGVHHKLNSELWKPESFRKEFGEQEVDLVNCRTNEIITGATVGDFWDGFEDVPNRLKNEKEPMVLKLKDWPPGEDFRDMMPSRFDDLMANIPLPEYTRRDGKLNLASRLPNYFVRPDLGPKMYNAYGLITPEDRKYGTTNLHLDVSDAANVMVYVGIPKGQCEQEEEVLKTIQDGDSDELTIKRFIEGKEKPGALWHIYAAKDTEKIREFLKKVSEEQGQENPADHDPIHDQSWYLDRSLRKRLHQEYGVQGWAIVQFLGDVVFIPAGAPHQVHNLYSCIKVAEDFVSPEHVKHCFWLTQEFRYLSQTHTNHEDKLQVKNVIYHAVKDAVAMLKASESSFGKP
UniProt Q92833: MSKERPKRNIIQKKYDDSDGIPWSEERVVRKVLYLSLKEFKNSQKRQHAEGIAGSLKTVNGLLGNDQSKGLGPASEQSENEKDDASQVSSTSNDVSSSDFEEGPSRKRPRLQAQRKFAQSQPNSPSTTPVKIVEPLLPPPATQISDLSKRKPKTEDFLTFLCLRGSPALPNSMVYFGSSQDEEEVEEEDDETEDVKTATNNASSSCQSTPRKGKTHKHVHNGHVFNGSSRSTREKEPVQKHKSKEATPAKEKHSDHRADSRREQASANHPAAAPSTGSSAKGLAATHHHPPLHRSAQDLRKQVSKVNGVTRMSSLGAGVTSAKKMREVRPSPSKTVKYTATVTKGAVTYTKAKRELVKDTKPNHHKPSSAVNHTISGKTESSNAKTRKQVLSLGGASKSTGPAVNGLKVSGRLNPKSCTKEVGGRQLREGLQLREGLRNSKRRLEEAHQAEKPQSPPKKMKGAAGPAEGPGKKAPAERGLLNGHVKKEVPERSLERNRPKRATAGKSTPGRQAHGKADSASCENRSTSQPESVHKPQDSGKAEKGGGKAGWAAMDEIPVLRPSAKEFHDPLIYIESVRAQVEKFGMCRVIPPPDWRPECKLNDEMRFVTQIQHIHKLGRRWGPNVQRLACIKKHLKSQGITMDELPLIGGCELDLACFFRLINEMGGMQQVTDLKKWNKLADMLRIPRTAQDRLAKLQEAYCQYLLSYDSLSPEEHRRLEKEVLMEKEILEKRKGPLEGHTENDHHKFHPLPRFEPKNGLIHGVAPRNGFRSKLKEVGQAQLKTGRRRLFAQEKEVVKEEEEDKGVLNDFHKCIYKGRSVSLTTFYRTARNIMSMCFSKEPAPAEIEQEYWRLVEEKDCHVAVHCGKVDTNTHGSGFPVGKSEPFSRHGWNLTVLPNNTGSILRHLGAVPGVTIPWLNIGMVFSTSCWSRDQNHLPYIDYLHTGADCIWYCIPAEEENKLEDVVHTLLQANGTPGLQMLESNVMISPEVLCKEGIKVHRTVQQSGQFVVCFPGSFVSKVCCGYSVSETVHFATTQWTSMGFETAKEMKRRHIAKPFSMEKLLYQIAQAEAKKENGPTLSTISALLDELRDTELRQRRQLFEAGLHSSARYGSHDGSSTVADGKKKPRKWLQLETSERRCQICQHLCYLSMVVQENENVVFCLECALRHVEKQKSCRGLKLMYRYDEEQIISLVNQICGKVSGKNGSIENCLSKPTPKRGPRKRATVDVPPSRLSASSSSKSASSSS
UniProt Q9H9L4: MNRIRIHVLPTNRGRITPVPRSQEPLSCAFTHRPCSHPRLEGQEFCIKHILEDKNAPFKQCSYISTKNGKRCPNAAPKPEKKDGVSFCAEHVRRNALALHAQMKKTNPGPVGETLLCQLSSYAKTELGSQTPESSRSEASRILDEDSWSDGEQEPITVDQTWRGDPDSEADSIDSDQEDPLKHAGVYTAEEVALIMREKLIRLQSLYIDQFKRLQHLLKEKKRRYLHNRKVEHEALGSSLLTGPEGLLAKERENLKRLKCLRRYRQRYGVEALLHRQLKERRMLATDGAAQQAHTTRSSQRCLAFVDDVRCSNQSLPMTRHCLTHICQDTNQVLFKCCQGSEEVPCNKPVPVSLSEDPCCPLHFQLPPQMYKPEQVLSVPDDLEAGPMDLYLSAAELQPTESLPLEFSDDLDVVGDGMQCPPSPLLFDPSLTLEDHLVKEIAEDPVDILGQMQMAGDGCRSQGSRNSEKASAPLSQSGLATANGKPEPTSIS
UniProt Q9UKP3: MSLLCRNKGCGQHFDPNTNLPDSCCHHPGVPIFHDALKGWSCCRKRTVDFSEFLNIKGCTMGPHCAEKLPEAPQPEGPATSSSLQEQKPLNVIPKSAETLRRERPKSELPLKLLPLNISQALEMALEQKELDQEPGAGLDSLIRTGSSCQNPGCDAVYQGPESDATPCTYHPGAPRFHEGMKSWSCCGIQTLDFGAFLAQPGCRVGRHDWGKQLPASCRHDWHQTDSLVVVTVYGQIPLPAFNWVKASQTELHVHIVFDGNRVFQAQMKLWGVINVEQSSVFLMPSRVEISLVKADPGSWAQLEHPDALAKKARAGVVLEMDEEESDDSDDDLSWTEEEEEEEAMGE
UniProt O60674: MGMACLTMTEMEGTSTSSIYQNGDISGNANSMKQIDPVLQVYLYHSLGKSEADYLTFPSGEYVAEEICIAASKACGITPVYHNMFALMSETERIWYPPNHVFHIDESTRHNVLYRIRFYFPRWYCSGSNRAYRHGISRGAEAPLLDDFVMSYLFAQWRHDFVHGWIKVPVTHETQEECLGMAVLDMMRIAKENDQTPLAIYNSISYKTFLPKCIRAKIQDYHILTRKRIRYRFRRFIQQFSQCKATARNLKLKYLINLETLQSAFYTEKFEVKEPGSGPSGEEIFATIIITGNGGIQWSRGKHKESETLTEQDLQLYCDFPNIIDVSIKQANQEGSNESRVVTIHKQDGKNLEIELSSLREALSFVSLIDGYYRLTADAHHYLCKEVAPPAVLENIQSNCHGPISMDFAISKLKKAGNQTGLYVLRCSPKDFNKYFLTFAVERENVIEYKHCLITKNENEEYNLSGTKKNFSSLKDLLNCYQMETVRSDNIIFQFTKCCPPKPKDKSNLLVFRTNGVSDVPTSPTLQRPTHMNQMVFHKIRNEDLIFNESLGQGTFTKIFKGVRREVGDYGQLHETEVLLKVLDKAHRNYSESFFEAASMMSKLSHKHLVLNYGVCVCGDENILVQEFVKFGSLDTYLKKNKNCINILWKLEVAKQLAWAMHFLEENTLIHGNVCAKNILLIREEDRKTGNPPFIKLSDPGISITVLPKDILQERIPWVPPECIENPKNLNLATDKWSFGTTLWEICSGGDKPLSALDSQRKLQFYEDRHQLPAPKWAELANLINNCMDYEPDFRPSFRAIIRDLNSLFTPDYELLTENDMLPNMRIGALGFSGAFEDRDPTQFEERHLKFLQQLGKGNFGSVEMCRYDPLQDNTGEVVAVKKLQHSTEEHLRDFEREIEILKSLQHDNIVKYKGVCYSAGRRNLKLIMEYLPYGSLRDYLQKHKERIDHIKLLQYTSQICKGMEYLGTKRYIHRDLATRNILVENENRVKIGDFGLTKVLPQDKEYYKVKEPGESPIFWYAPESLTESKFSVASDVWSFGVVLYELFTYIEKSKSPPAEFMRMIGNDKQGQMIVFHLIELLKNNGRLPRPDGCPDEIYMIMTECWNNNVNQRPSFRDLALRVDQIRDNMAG
UniProt Q9NQC1, whole entry, looked up: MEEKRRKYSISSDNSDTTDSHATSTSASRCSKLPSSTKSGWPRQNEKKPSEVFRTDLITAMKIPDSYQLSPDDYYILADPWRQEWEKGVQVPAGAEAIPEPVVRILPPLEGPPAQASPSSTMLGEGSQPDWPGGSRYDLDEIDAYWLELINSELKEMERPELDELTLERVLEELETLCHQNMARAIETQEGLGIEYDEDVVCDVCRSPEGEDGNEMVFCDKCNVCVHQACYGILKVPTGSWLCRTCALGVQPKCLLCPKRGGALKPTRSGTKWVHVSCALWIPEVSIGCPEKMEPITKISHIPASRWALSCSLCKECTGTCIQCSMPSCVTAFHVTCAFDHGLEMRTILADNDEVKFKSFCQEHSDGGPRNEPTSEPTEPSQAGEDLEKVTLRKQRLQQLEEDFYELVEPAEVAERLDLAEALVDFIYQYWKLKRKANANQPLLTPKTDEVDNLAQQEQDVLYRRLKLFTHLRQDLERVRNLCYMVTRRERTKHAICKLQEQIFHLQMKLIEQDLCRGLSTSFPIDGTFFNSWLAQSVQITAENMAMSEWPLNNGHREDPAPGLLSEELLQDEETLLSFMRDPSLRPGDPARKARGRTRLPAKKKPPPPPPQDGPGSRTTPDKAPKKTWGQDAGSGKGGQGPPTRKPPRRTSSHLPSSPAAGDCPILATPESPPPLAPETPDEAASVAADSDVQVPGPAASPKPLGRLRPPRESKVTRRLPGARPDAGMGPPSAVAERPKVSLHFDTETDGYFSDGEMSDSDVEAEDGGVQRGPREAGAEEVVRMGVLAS
UniProt Q9NQX7: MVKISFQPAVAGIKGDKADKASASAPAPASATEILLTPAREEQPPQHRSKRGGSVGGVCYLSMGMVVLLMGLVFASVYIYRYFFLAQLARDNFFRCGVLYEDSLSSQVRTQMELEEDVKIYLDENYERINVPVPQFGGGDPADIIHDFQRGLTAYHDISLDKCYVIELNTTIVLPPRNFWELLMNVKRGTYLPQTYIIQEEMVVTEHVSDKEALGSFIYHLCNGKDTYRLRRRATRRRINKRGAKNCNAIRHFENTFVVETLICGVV
UniProt Q9H910: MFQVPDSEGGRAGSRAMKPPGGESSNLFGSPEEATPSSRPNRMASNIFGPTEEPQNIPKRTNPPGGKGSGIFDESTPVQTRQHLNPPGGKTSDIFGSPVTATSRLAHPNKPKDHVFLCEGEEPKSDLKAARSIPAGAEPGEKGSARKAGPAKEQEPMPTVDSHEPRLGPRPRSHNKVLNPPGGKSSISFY
UniProt O15554, whole entry, looked up: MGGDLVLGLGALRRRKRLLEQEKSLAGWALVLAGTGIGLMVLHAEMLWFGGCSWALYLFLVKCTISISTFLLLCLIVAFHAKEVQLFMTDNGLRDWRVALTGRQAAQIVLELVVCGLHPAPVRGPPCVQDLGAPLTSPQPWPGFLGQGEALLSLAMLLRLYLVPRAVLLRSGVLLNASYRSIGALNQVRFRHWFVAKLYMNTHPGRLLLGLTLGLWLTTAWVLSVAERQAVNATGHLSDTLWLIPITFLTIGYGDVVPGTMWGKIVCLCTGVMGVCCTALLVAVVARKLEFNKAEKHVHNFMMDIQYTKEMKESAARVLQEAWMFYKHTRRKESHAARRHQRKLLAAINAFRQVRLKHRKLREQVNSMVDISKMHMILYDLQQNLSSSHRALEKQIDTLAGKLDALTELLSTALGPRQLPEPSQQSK

[1] = compound: CCCS(=O)(=O)Nc1ccc(F)c(C(=O)c2c[nH]c3ncc(Cl)cc23)c1F
Outline: as §1

barasertib = compound: CCN(CCCOc1ccc2c(Nc3cc(CC(=O)Nc4cccc(F)c4)[nH]n3)ncnc2c1)CCOP(=O)(O)O [barasertib]
Outline: as §1

[2] = compound: CC[C@@H]1C(=O)N(C)c2cnc(Nc3ccc(C(=O)NC4CCN(C)CC4)cc3OC)nc2N1C1CCCC1
Outline: as §1

volasertib = compound: CC[C@@H]1C(=O)N(C)c2cnc(Nc3ccc(C(=O)N[C@H]4CC[C@H](N5CCN(CC6CC6)CC5)CC4)cc3OC)nc2N1C(C)C [volasertib]
Outline: as §1

[3] = compound: CCn1c(C(=O)N(C2CC2)C2CC2)cc2c3c(ncn3C)c(Nc3cc(C)n(C)n3)nc21
Outline: as §1

saracatinib = compound: CN1CCN(CCOc2cc(OC3CCOCC3)c3c(Nc4c(Cl)ccc5c4OCO5)ncnc3c2)CC1 [saracatinib]
Outline: as §1

sotrastaurin = compound: CN1CCN(c2nc(C3=C(c4c[nH]c5ccccc45)C(=O)NC3=O)c3ccccc3n2)CC1 [sotrastaurin]
Outline: as §1

Tubastatin A = compound: CN1CCc2c(c3ccccc3n2Cc2ccc(C(=O)NO)cc2)C1 [Tubastatin A]
Outline: as §1

[4] = compound: CNC(=O)C1=CC=CC=C1NC2=NC(=NC=C2Cl)NC3=C(C=C(C=C3)N4CCOCC4)OC
Outline: as §1

defactinib = compound: CNC(=O)c1ccc(Nc2ncc(C(F)(F)F)c(NCc3nccnc3N(C)S(C)(=O)=O)n2)cc1 [defactinib]
Outline: as §1

[5] = compound: CNc1nc(-c2ccc3c(N)n[nH]c3c2)cc(N2C[C@@H](C(=O)NC3CCCCC3)CC[C@H]2C)n1
Outline: as §1

encorafenib = compound: COC(=O)N[C@@H](C)CNc1nccc(-c2cn(C(C)C)nc2-c2cc(Cl)cc(NS(C)(=O)=O)c2F)n1 [encorafenib]
Outline: as §1

[6] = compound: COC(=O)[C@H](CCSC)NC(=O)C1=C(C=C(C=C1)NC[C@H](CS)N)C2=CC=CC=C2
Outline: as §1

alisertib = compound: COc1cc(Nc2ncc3c(n2)-c2ccc(Cl)cc2C(c2c(F)cccc2OC)=NC3)ccc1C(=O)O [alisertib]
Outline: as §1

[7] = compound: COc1cc2nc(-c3cc(F)ccc3O)nc(N[C@@H]3CNC[C@H]3C(C)(C)O)c2cc1OC
Outline: as §1

gefitinib = compound: COc1cc2ncnc(Nc3ccc(F)c(Cl)c3)c2cc1OCCCN1CCOCC1 [gefitinib]
Outline: as §1

[8] = compound: CCn1cc(-c2ccnc3[nH]c(-c4cccc(CN(C)C)c4)cc23)c(-c2ccc(NC(=O)N(C)C)cc2)n1
Outline: as §1

[9] = compound: CN1CCC(CNc2ccc3ncc(-c4cccc(OC(F)(F)F)c4)n3n2)CC1
Outline: as §1

alvocidib = compound: CN1CC[C@H](c2c(O)cc(O)c3c(=O)cc(-c4ccccc4Cl)oc23)[C@H](O)C1 [alvocidib]
Outline: as §1

Target: JTB (UniProt O76095)
- log2 fold change (vemurafenib): inactive: -0.324
- log2 fold change [1]: inactive: -0.067
- log2 fold change (barasertib): inactive: -0.045
- log2 fold change [2]: inactive: 0.092
- log2 fold change (volasertib): inactive: 0.062
- log2 fold change [3]: inactive: 0.025
- log2 fold change (saracatinib): inactive: 0.022
- log2 fold change (sotrastaurin): inactive: 0.072
- log2 fold change (Tubastatin A): inactive: 0.035
- log2 fold change [4]: inactive: -0.066
- log2 fold change (defactinib): inactive: -0.048
- log2 fold change [5]: inactive: 0.022
- log2 fold change (encorafenib): inactive: 0.02
- log2 fold change [6]: inactive: -0.037
- log2 fold change (alisertib): inactive: -0.038
- log2 fold change [7]: inactive: 0.024
- log2 fold change (gefitinib): inactive: 0.134

Target: KDM3A (UniProt Q9Y4C1)
- log2 fold change (vemurafenib): inactive: 0.013
- log2 fold change (barasertib): inactive: -0.007
- log2 fold change [2]: inactive: 0.061
- log2 fold change [3]: inactive: -0.022
- log2 fold change [8]: inactive: 0.113
- log2 fold change [9]: inactive: -0.093
- log2 fold change (saracatinib): inactive: 0.031
- log2 fold change (sotrastaurin): inactive: 0.036
- log2 fold change (alvocidib): inactive: 0.02
- log2 fold change (Tubastatin A): inactive: -0.037
- log2 fold change [4]: inactive: -0.031
- log2 fold change (defactinib): inactive: -0.04
- log2 fold change [5]: inactive: 0.078
- log2 fold change (encorafenib): inactive: 0.007
- log2 fold change [6]: inactive: 0.035
- log2 fold change (alisertib): inactive: 0.079
- log2 fold change (gefitinib): inactive: -0.046

Target: JARID2 (UniProt Q92833)
- log2 fold change (alisertib): inactive: 0.062
- log2 fold change (gefitinib): inactive: -0.037

Target: KANSL2 (UniProt Q9H9L4)
- log2 fold change [3]: inactive: -0.093
- log2 fold change (sotrastaurin): inactive: -0.02
- log2 fold change (Tubastatin A): inactive: -0.035
- log2 fold change [4]: inactive: 0.091

Target: KALRN (UniProt O60229)
- log2 fold change [8]: inactive: -0.193
- log2 fold change [9]: inactive: 0.127
- log2 fold change (sotrastaurin): inactive: 0.051
- log2 fold change (alvocidib): inactive: -0.109

Target: ITGB1BP2 (UniProt Q9UKP3)
- log2 fold change (vemurafenib): inactive: 0.045
- log2 fold change [2]: inactive: -0.07
- log2 fold change [8]: inactive: -0.032
- log2 fold change [9]: inactive: 0.443
- log2 fold change (saracatinib): inactive: 0.005
- log2 fold change (alvocidib): inactive: -0.116
- log2 fold change (defactinib): inactive: -0.112
- log2 fold change [5]: inactive: -0.018
- log2 fold change (encorafenib): inactive: -0.137
- log2 fold change [6]: inactive: 0.044

Target: JAK2 (UniProt O60674)
- log2 fold change (vemurafenib): inactive: -0.054
- log2 fold change [3]: inactive: -0.045
- log2 fold change [8]: inactive: 0.027
- log2 fold change [9]: inactive: 0.133
- log2 fold change (saracatinib): inactive: -0.113
- log2 fold change (alvocidib): inactive: 0.002
- log2 fold change (Tubastatin A): inactive: -0.133
- log2 fold change [4]: inactive: 0.036
- log2 fold change (defactinib): inactive: -0.001
- log2 fold change [5]: inactive: 0.015
- log2 fold change (alisertib): inactive: 0.076
- log2 fold change (gefitinib): inactive: -0.237

Target: ITPRIP (UniProt Q8IWB1)
- log2 fold change (saracatinib): inactive: -0.143
- log2 fold change [4]: active: 0.994
- log2 fold change [5]: inactive: -0.268

Target: ITIH3 (UniProt Q06033)
- log2 fold change (barasertib): inactive: 0.053
- log2 fold change [2]: inactive: 0.194
- log2 fold change [3]: inactive: -0.055
- log2 fold change (Tubastatin A): inactive: 0.037
- log2 fold change [4]: inactive: 0.082
- log2 fold change (encorafenib): inactive: -0.036
- log2 fold change [6]: inactive: 0.043

Target: JADE2 (UniProt Q9NQC1)
- log2 fold change [2]: inactive: -0.357
- log2 fold change [8]: inactive: 0.242
- log2 fold change [9]: inactive: -0.124
- log2 fold change (saracatinib): inactive: 0.115
- log2 fold change (alvocidib): inactive: 0.274
- log2 fold change [5]: inactive: -0.059
- log2 fold change (encorafenib): inactive: -0.004
- log2 fold change [6]: inactive: 0.037

Target: JOSD1 (UniProt Q15040)
- log2 fold change [4]: inactive: -0.023

Target: ITM2C (UniProt Q9NQX7)
- log2 fold change [1]: inactive: -0.207
- log2 fold change (barasertib): inactive: 0.149
- log2 fold change [2]: inactive: -0.046
- log2 fold change (volasertib): inactive: 0.165
- log2 fold change [3]: inactive: 0.077
- log2 fold change (saracatinib): inactive: 0.005
- log2 fold change (sotrastaurin): inactive: -0.063
- log2 fold change (Tubastatin A): inactive: -0.032
- log2 fold change [4]: inactive: 0.033
- log2 fold change [5]: inactive: -0.074
- log2 fold change (encorafenib): inactive: 0.02
- log2 fold change [6]: inactive: 0.046
- log2 fold change [7]: inactive: 0.136

Target: JPT2 isoform 2 (UniProt Q9H910)
- log2 fold change (barasertib): inactive: 0.119
- log2 fold change [8]: inactive: 0.032
- log2 fold change [9]: inactive: 0.001
- log2 fold change (saracatinib): inactive: -0.183
- log2 fold change (alvocidib): inactive: 0.046
- log2 fold change [5]: inactive: 0.189

Target: KCNN4 (UniProt O15554)
- log2 fold change [1]: inactive: -0.212
- log2 fold change (volasertib): inactive: -0.188
- log2 fold change [3]: inactive: 0.139
- log2 fold change [8]: inactive: -0.061
- log2 fold change [9]: inactive: -0.217
- log2 fold change (sotrastaurin): inactive: 0.082
- log2 fold change (alvocidib): inactive: 0.112
- log2 fold change (Tubastatin A): inactive: -0.059
- log2 fold change [4]: inactive: -0.047
- log2 fold change (alisertib): inactive: -0.335
- log2 fold change [7]: inactive: 0.292
- log2 fold change (gefitinib): inactive: -0.245

Reference: the supplement of paper PMC10849652
